No constants are given. Whether binding was seen depends on the method and setting. In cells and extracts the contact can be indirect. Some entries that bind do so weakly or less than the wild type.

Protein sequences, listed by entry. Tags and fused reporters are not part of them.
UniProt Q14790: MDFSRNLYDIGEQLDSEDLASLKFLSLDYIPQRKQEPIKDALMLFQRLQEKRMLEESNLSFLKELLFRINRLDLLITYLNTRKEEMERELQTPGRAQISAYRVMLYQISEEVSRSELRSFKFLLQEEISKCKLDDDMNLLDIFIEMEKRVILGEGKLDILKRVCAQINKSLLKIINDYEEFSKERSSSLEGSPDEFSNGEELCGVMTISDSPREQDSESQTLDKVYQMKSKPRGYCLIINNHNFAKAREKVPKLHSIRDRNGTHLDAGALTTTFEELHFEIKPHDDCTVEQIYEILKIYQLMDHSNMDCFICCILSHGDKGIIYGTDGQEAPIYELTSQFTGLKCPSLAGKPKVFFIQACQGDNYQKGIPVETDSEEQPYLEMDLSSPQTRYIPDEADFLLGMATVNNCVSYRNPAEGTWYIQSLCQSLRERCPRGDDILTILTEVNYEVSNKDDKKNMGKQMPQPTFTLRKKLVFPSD
UniProt Q9Y572: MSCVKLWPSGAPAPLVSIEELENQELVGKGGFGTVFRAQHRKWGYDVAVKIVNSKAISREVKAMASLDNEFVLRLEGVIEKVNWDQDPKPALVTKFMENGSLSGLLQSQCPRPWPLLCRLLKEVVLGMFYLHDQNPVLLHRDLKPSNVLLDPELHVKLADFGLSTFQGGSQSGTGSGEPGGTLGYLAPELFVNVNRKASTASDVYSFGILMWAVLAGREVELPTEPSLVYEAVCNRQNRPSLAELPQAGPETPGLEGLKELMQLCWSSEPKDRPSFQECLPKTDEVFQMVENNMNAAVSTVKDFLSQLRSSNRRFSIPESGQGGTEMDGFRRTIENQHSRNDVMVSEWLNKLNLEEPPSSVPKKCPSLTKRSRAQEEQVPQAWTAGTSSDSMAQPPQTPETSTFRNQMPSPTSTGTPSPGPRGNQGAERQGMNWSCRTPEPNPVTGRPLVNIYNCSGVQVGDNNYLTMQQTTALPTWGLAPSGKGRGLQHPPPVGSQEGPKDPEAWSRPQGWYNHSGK

This assay addresses caspase-8 (human (endogenous in HT29)) (UniProt Q14790). Description: co-IP; HT29 cells treated with TNFα or Flag-TNFα, BV6 and zVAD (TBZ), also after siRNA knockdowns (c-IAP1, c-IAP2, XIAP, HOIP, HOIL1, sharpin); lysates or supernatants of the Flag immunoprecipitation immunoprecipitated with caspase-8 antibody on protein-A/G beads overnight at 4 °C; western blot.

Turning to “receptor-interacting protein kinase 3 (from UniProt Q9Y572 1-518)”, the binding entry is recorded as “binds”.

The record behind these values is PMC4669837.
